Data as given in PubChem BioAssay AID686938 (Drosophila RNAi Screening Center, 2013)
Purpose: 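Looking for CRAC channel components and the factors controlling them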 (primary screen). Cells: Drosophila S2R+ cells. Reagents: long dsRNA against Drosophila genes, about 0.25 µg dsRNA per well, roughly 10,000 cells. Duration: 5 days of knock-down before the calcium assay. Conditions: thapsigargin (SERCA pump blocker) to empty calcium stores; entry signal taken 4 min after adding it. Measurement: 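Duplicate raw fluo-4 intensities per well from a plate reader, at rest and four minutes after thapsigargin emptied calcium stores; entry-to-rest ratio filled for only some wells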. Reading the numbers: calcium entry signal: higher = stronger calcium signal after store depletion; resting calcium signal: higher = higher resting calcium signal. Units: calcium entry signal in fluorescence units; resting calcium signal in fluorescence units. Hit rule: 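Hit if the duplicate-averaged plate z-score for entry over resting signal is under −3; wells with weak total dye signal (Fmax z < −2) or more than 5 off-targets removed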. Meaning of the calls: active = strongly reduced calcium entry; inactive = no strong reduction.
The screen tested about 23,000 reagents; shown is an unselected part of those with a known target gene and a result. Of all reagents, 75 (0.33%) are marked active. 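Raw plate signals without normalisation; calls rest on plate z-scores that were not deposited; ratio present for only 364 wells.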 Names joined by + are all predicted targets of the reagent. The record does not give: the dose of the treatment.

For CG11927 (GeneID 33687) [DRSC00337], the entry reads calcium entry signal, replicate 1 = 3.36e7; resting calcium signal, replicate 1 = 1.70e7; inactive.
Silencing of CG30031 + deltaTry + CG30025 + 1 more [DRSC21262] resulted in: calcium entry signal, replicate 1 = 4.05e7; calcium entry signal, replicate 2 = 5.27e7; resting calcium signal, replicate 1 = 2.21e7; resting calcium signal, replicate 2 = 2.24e7; inactive.
With knock-down of if (GeneID 32661) [DRSC20341], the screen gave calcium entry signal, replicate 1 = 4.35e7; calcium entry signal, replicate 2 = 3.48e7; resting calcium signal, replicate 1 = 2.17e7; resting calcium signal, replicate 2 = 1.59e7; inactive.
After knock-down of Ugt49B2 (GeneID 42538) [DRSC16049], the record shows calcium entry signal, replicate 1 = 4.41e7; calcium entry signal, replicate 2 = 4.17e7; resting calcium signal, replicate 1 = 5.39e7; resting calcium signal, replicate 2 = 1.85e7; inactive.
After knock-down of CG4829 (GeneID 32672) [DRSC19920], the screen gave calcium entry signal, replicate 1 = 3.95e7; calcium entry signal, replicate 2 = 3.78e7; resting calcium signal, replicate 1 = 1.84e7; resting calcium signal, replicate 2 = 1.71e7; inactive.
Knock-down of CG13607 (GeneID 42859) [DRSC14610] came out at: calcium entry signal, replicate 1 = 6.37e7; calcium entry signal, replicate 2 = 4.00e7; resting calcium signal, replicate 1 = 2.68e7; resting calcium signal, replicate 2 = 1.69e7; inactive.
With knock-down of CG31949 (GeneID 319042) [DRSC00110] the results were calcium entry signal, replicate 1 = 2.79e7; calcium entry signal, replicate 2 = 2.84e7; resting calcium signal, replicate 1 = 1.49e7; resting calcium signal, replicate 2 = 1.32e7; inactive.
CG15653 (GeneID 37388) [DRSC04244] scored calcium entry signal, replicate 1 = 4.67e7; calcium entry signal, replicate 2 = 5.47e7; resting calcium signal, replicate 1 = 2.65e7; resting calcium signal, replicate 2 = 2.33e7; inactive.
For Lsp1beta (GeneID 33274) [DRSC00757], the values are calcium entry signal, replicate 1 = 4.42e7; resting calcium signal, replicate 1 = 2.66e7; inactive.
After knock-down of asRNA:CR31845 (GeneID 12798199) [DRSC22257], the screen gave calcium entry signal, replicate 1 = 1.97e7; calcium entry signal, replicate 2 = 3.22e7; resting calcium signal, replicate 1 = 1.04e7; resting calcium signal, replicate 2 = 1.54e7; inactive.
Depletion of asRNA:CR31845 (GeneID 12798199) [DRSC23074] gave: calcium entry signal, replicate 1 = 3.46e7; calcium entry signal, replicate 2 = 2.92e7; resting calcium signal, replicate 1 = 1.41e7; resting calcium signal, replicate 2 = 1.20e7; inactive.
For soti (GeneID 41748) [DRSC16432], the values are calcium entry signal, replicate 1 = 2.89e7; calcium entry signal, replicate 2 = 3.28e7; resting calcium signal, replicate 1 = 1.35e7; resting calcium signal, replicate 2 = 1.46e7; inactive.
Depletion of CG15035 (GeneID 31673) [DRSC17967] gave: calcium entry signal, replicate 1 = 3.83e7; calcium entry signal, replicate 2 = 3.31e7; resting calcium signal, replicate 1 = 1.83e7; resting calcium signal, replicate 2 = 1.63e7; inactive.
Silencing of lectin-46Ca (GeneID 53523) [DRSC06612] gave: calcium entry signal, replicate 1 = 3.13e7; calcium entry signal, replicate 2 = 4.86e7; resting calcium signal, replicate 1 = 1.31e7; resting calcium signal, replicate 2 = 2.32e7; inactive.
Silencing of CG31248 (GeneID 40853) [DRSC22722] came out at: calcium entry signal, replicate 1 = 3.29e7; calcium entry signal, replicate 2 = 3.42e7; resting calcium signal, replicate 1 = 1.83e7; resting calcium signal, replicate 2 = 1.54e7; inactive.
Against CG13108 (GeneID 34240) [DRSC02206] the deposit lists calcium entry signal, replicate 1 = 3.38e7; calcium entry signal, replicate 2 = 6.16e7; resting calcium signal, replicate 1 = 1.73e7; resting calcium signal, replicate 2 = 2.60e7; inactive.
For brm (GeneID 39744) [DRSC11330] the deposit lists calcium entry signal, replicate 1 = 5.89e7; calcium entry signal, replicate 2 = 5.67e7; resting calcium signal, replicate 1 = 3.58e7; resting calcium signal, replicate 2 = 3.25e7; active.
Depletion of CG7017 (GeneID 40213) [DRSC10762] came out at: calcium entry signal, replicate 1 = 2.24e7; calcium entry signal, replicate 2 = 3.56e7; resting calcium signal, replicate 1 = 1.18e7; resting calcium signal, replicate 2 = 1.57e7; inactive.
After knock-down of CG6847 (GeneID 32778) [DRSC19213] the results were calcium entry signal, replicate 1 = 3.02e7; calcium entry signal, replicate 2 = 4.18e7; resting calcium signal, replicate 1 = 1.62e7; resting calcium signal, replicate 2 = 1.83e7; inactive.
After knock-down of CG6847 (GeneID 32778) [DRSC20009], the record shows calcium entry signal, replicate 1 = 2.80e7; calcium entry signal, replicate 2 = 3.46e7; resting calcium signal, replicate 1 = 1.39e7; resting calcium signal, replicate 2 = 1.49e7; inactive.
With knock-down of spn-F (GeneID 43700) [DRSC14475], the screen gave calcium entry signal, replicate 1 = 1.81e7; calcium entry signal, replicate 2 = 1.43e7; resting calcium signal, replicate 1 = 1.09e7; resting calcium signal, replicate 2 = 8.46e6; inactive.

3 entries from above, arranged by “resting calcium signal, replicate 1”, descending:
CG30031 + deltaTry + CG30025 + 1 more [DRSC21262] → calcium entry signal, replicate 1 = 4.05e7; calcium entry signal, replicate 2 = 5.27e7; resting calcium signal, replicate 1 = 2.21e7; resting calcium signal, replicate 2 = 2.24e7; outcome = inactive
if (GeneID 32661) [DRSC20341] → calcium entry signal, replicate 1 = 4.35e7; calcium entry signal, replicate 2 = 3.48e7; resting calcium signal, replicate 1 = 2.17e7; resting calcium signal, replicate 2 = 1.59e7; outcome = inactive
CG11927 (GeneID 33687) [DRSC00337] → calcium entry signal, replicate 1 = 3.36e7; resting calcium signal, replicate 1 = 1.70e7; outcome = inactive
